Results on 13 substances are retold here after publication doi:10.1101/445148.

Amino acid sequences for entries named in this document (tags omitted).
UniProt Q9H8M2: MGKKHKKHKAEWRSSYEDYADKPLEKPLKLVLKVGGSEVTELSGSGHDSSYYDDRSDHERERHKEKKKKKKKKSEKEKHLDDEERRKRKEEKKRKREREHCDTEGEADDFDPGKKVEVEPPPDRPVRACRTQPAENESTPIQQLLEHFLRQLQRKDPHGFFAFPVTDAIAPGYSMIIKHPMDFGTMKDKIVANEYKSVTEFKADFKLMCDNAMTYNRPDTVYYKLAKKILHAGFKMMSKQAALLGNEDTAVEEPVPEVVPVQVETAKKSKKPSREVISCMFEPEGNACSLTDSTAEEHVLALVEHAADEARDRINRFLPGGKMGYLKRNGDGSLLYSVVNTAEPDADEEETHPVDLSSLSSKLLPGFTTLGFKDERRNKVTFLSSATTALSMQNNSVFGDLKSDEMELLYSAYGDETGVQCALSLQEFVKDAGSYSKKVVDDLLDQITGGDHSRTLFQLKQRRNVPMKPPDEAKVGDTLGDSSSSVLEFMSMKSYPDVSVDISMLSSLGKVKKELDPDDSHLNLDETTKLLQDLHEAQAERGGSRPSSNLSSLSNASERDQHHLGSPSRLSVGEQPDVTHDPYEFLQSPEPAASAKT
UniProt Q92922: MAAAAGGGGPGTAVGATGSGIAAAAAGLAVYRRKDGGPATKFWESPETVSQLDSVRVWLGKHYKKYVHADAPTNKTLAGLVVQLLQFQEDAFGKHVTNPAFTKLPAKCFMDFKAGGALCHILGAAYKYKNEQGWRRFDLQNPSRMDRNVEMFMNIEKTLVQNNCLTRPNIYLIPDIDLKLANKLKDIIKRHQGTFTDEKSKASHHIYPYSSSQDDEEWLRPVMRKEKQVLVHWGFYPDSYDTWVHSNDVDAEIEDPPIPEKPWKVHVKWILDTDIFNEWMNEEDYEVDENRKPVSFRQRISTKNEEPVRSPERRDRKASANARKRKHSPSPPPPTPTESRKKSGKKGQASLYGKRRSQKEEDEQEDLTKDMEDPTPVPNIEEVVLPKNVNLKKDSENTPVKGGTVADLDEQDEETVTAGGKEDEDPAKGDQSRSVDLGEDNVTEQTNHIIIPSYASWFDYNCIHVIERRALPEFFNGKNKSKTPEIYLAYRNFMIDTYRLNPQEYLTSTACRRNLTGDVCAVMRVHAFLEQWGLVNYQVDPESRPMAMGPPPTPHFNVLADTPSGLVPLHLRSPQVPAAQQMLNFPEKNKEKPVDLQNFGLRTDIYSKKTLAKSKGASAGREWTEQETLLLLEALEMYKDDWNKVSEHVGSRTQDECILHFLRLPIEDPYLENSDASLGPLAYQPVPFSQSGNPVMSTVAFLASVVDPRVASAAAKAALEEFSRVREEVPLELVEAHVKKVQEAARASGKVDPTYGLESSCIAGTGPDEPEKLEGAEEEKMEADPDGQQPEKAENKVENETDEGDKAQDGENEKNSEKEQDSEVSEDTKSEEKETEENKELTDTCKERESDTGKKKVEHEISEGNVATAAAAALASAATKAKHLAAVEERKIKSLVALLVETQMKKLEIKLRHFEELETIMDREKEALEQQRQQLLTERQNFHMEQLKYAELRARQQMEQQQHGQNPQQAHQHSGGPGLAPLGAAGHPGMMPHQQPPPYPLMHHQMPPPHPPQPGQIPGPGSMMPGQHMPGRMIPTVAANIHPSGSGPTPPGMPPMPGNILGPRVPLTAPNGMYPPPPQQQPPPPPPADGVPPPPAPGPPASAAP
UniProt Q96GM5: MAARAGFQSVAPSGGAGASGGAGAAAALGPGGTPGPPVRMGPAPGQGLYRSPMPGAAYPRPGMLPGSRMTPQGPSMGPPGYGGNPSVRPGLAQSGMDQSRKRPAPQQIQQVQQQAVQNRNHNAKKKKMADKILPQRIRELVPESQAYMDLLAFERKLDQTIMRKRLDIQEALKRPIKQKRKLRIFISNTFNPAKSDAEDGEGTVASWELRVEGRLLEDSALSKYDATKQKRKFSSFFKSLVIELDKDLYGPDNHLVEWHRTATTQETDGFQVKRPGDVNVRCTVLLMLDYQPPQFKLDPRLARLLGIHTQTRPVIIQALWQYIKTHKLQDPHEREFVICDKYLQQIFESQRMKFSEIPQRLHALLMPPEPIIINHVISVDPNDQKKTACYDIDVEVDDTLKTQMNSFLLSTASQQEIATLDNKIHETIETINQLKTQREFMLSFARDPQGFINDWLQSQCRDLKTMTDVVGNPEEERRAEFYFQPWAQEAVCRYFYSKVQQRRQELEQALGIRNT
UniProt P51532: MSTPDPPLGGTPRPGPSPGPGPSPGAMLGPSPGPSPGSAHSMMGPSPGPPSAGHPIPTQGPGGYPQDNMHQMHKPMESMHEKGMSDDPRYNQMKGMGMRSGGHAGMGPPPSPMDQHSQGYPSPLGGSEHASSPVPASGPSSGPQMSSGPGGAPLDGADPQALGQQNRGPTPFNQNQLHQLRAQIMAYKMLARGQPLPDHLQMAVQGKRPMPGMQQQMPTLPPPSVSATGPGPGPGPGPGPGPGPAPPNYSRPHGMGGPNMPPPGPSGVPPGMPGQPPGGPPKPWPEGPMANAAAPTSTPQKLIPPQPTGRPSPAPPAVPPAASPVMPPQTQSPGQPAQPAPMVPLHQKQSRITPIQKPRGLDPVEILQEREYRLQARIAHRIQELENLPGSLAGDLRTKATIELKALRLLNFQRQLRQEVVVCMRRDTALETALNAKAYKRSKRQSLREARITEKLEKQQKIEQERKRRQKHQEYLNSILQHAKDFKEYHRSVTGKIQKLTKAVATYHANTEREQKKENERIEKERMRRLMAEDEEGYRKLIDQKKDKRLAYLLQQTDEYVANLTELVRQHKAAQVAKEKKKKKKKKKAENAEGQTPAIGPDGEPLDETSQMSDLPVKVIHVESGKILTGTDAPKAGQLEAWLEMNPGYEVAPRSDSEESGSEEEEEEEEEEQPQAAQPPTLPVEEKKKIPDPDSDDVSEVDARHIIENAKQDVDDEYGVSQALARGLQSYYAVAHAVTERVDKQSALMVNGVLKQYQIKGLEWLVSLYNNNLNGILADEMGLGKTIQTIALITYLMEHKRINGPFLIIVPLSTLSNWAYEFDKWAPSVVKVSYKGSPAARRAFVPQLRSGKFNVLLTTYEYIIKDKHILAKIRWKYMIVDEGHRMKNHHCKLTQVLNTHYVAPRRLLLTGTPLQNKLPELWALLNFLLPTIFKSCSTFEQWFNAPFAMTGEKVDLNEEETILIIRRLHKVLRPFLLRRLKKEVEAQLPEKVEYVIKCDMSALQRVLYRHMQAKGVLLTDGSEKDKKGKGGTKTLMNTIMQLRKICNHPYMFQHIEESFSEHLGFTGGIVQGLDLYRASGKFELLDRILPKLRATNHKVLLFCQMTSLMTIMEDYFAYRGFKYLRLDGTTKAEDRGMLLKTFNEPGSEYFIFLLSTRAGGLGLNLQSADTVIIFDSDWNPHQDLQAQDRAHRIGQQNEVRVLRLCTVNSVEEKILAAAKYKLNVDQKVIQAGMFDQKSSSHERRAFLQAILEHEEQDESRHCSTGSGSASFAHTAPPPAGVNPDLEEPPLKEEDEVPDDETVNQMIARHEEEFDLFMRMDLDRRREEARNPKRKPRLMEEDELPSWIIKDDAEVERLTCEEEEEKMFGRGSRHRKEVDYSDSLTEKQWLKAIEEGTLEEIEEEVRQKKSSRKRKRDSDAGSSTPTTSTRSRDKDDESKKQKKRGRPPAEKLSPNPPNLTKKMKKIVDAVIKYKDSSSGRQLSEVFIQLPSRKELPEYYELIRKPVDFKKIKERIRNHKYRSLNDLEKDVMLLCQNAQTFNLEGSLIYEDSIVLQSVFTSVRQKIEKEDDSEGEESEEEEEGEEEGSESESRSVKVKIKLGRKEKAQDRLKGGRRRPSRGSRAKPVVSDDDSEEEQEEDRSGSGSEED
UniProt Q9NZM4: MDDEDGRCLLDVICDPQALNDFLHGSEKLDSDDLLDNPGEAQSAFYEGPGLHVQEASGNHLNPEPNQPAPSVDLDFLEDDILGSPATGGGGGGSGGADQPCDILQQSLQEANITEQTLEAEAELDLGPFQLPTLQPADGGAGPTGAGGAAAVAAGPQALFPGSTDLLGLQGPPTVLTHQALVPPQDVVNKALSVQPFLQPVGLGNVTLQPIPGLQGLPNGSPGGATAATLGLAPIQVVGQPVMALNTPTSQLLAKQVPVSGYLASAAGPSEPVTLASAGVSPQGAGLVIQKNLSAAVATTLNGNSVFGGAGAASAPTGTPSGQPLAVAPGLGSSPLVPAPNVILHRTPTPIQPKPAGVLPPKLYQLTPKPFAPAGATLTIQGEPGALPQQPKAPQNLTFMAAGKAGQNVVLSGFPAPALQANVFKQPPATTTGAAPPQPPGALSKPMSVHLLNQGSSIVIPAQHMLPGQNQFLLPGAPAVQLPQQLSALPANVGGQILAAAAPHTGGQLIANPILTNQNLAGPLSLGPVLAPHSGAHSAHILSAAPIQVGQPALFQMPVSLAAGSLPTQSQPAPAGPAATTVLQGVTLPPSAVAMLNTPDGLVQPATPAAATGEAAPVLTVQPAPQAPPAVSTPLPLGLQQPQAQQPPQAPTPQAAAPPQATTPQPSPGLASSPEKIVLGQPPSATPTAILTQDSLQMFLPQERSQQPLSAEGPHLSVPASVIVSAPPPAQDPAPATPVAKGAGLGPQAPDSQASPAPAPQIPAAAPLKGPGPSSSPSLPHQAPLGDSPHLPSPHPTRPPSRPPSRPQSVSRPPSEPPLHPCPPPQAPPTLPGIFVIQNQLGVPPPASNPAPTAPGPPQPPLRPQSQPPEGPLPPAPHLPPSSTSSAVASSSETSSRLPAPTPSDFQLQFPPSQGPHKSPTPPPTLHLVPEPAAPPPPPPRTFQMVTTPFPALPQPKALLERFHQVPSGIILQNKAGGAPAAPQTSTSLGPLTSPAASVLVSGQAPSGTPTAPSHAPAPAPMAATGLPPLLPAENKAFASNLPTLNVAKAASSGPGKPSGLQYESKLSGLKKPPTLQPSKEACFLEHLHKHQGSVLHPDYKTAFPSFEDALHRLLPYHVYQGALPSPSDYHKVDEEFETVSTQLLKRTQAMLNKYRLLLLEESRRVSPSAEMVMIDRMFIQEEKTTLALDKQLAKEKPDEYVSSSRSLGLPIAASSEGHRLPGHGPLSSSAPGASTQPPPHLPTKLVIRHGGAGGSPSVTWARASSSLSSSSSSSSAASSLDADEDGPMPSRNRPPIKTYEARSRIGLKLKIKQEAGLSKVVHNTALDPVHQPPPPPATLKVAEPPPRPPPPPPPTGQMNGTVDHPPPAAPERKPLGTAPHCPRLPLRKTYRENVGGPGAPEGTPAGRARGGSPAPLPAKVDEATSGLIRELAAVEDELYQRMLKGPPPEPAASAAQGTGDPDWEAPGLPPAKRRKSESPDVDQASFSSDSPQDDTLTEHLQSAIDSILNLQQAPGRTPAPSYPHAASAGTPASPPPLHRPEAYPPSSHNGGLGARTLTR
UniProt P49848: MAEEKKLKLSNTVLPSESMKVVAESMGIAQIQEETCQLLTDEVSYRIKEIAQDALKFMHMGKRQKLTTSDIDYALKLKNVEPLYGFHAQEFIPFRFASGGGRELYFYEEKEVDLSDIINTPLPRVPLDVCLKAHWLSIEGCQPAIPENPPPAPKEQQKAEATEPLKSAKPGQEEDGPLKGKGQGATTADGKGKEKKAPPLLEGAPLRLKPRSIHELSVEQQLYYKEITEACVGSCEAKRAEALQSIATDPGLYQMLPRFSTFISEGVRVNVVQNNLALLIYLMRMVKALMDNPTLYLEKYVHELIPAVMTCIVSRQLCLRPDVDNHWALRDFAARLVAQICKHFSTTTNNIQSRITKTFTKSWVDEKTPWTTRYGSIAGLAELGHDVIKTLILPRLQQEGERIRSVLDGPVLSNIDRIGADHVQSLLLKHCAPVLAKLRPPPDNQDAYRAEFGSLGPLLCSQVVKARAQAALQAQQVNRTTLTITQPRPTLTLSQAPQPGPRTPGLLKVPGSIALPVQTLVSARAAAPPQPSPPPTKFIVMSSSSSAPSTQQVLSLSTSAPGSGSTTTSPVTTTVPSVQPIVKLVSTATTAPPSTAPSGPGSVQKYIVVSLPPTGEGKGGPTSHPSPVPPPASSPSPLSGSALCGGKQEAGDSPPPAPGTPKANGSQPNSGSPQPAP
UniProt Q15532: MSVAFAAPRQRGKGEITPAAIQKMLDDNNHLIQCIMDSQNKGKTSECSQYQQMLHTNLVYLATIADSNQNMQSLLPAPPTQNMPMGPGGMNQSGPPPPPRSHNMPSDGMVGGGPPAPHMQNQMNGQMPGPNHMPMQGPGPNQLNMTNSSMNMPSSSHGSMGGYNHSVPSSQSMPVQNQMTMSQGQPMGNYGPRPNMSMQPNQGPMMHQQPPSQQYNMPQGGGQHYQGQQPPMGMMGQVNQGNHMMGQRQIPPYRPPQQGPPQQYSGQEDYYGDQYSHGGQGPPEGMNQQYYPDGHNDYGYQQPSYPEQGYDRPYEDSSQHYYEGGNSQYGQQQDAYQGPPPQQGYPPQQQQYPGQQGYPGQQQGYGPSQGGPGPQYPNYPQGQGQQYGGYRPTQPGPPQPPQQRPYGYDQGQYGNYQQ

Results are given in words; binding and its absence hold for the method and conditions named. Binding seen in cells or lysates may run through a third protein. A yes stands for co-enrichment or nearness to the bait. Other partners may have been found. For part of these data: No binding means not detected with the bait.

Common to all, as to experiment: affinity purification with mass spectrometry
In experiment [1] the target is GFP-tagged BRD9 (UniProt Q9H8M2).
In experiment [2] the target is GFP-tagged SMARCC1 (BAF155) (UniProt Q92922).
Experiment [3] concerns the target GFP-tagged SMARCD1 (BAF60a) (UniProt Q96GM5).
Experiment [4] has as its target GFP-tagged GLTSCR1L, full length (UniProt Q6AI39).
For experiment [5], the target named is GFP-tagged GLTSCR1L lacking the GiBAF-domain (UniProt Q6AI39).

In the case of GLTSCR1L (from UniProt Q6AI39 1-1079), the binding entry in experiment [1], in experiment [2] and in experiment [3] was “binds” in each case.
Turning to “SMARCA4 (BRG1) (from UniProt P51532 1-1647)”, the binding result in experiment [4] was “binds”.
For “SMARCC1 (BAF155) (from UniProt Q92922 1-1105)”, the binding entry in experiment [4] is “binds”.
Same read-out and setting: to “SMARCE1 (BAF57) (from UniProt Q969G3 1-411)” belongs “no binding”; to BCL7C (from UniProt Q8WUZ0 1-217), “binds”.
For TAF4 (from UniProt O00268 1-1085), in experiment [5], the binding entry is “binds”.
In the case of GLTSCR1 (from UniProt Q9NZM4 1-1560), the binding entry is given as “binds” in experiment [1], “no binding” in experiment [4], “binds” in experiment [2] and “binds” in experiment [3].
Turning to “DPF1 (BAF45B) (from UniProt Q92782 1-387)”, the binding entry in experiment [4] was “no binding”.
On to TAF6 (from UniProt P49848 1-677), for which the binding entry in experiment [5] was “binds”.
Turning to DPF2 (from UniProt Q92785 1-391), in experiment [4], the binding entry is given as “no binding”.
Same read-out and setting: the value for “SMARCD1 (BAF60a) (from UniProt Q96GM5 1-515)” was “binds”.
Still for that read-out and setting: to SS18 (from UniProt Q15532 1-418) belongs “binds”; to BRD9 (from UniProt Q9H8M2 1-597), “binds”.
